Patent US20140248361A1, “HERBAL EXTRACT COMPOSITION AND A PROCESS THEREOF” (PRASAN SOLUTIONS (INDIA) PVT LTD, priority 2012, published 2014)
Some results were stated once for a whole list of compounds, not compound by compound. For at least one compound, name, drawing or mass did not settle the structure.

Assay: Totox value of sunflower oil on storage
Conditions: 50° C.

## COc1ccc(O)c(C(C)(C)C)c1 [Sample B, butylated hydroxyanisole]
  days by which totox value crosses the threshold limit of 30: ≤ 37 days
